The structures appear in SMILES notation. The list shows a part of the results. Shown are side measurements of this screen, not its main read-out; they come without a call. The list favours compounds with an active or inconclusive main result. Words in brackets tell the shape of the fitted curve; partial curves, single points and poor fits give uncertain potencies.

This assay in a line: qHTS Assay to Find Inhibitors of Chronic Active B-Cell Receptor Signaling. Particulars: ABC-DLBCL IkBa-CBG/CBR reporter, luminescence ratio (green luciferase fused to IkBa over red control in TMD8 lymphoma cells), 4 h; measured here: CBR red luminescence, cell number. In outline: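 Doxycycline induced both beetle luciferases in TMD8 lymphoma cells; IKK-driven degradation limits the IkappaBalpha-fused green signal, while red luminescence normalises for cell number and nonspecific effects. Compounds tested up to 46 uM, 4 hrs.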
With `CC(C)(CNC(=O)c1ccc([N+](=O)[O-])c(Cl)c1)CNC(=O)c1ccc([N+](=O)[O-])c(Cl)c1`, the AC50 was 3.98 µM [falling, full curve].
Next, `O=C(COC(=O)CNC(=O)c1ccccc1)NCc1ccc2c(c1)OCO2`: 4.11 µM [rising, single point].
Next, `Cc1ccc(-n2nc(C)cc2N)c(C)c1`: 35.5 µM [rising, single point]; `CC(C)n1c(=S)[nH]c2cc(Cl)ccc21`: 3.55 µM [rising, partial curve, poor fit]; `Cc1cccc(OCC(=O)N/N=C/c2sc(=O)n(Cc3cccc(C(=O)O)c3)c2Cl)c1`: 0.631 µM [falling, full curve, poor fit].
In the case of `N#CC1=C(N)Oc2n[nH]c(-c3ccc(F)cc3)c2C1c1cccc(OC(=O)N2CCOCC2)c1` (stereo unspecified), the AC50 is 5.17 µM [falling, partial curve, poor fit].
Turning to `CC(C)C(C(=O)Nc1ccc2c(c1)OCCO2)N1C(=O)c2ccccc2C1=O` (stereo unspecified), the half-maximal activity concentration (AC50) is 20.6 µM [rising, single point].
For `O=C(CCCN1C(=O)NC2(CCCC2)C1=O)Nc1ccc(F)cc1` the value was 16.4 µM [falling, partial curve, poor fit]; for `COc1ccc2c(c1)CCC/C2=N\Nc1nc(C(=O)NN)cs1`, 6.31 µM [falling, full curve, poor fit].
As for `COC(=O)CN1C(=O)N(c2ccccc2)C(N(O)C(=O)Nc2ccccc2)C1(C)C` (stereo unspecified), the AC50 is 0.355 µM [rising, full curve].
As to `COc1cc(C(=O)N/N=C/c2ccc(OC)c(CN3CCN(c4ccc(F)cc4)CC3)c2)ccc1O`, the AC50 is 8.91 µM [falling, partial curve, poor fit].
Next, `COc1ccc(NC(=O)CSc2nnc(C3CCCCC3)n2N)cc1OC`: 12.6 µM [falling, single point]; `O=C(Nc1cccc(F)c1)/C(=C\c1ccco1)NC(=O)c1cccs1`: 35.5 µM [falling, single point].
For `CCCC(=O)Nc1nc2c(c(=O)[nH]1)CCCC2` the value was 23.1 µM [falling, single point].
Consider `CCSc1nc(N)c2c3c(sc2n1)CCC3`, for which the half-maximal activity concentration (AC50) is 2.24 µM [rising, full curve, poor fit].
Turning to `O=C(CSc1nnc(-c2ccncc2)n1CC1CCCO1)Nc1ccccc1Cl` (stereo unspecified), the AC50 was 0.794 µM [rising, partial curve, poor fit].
For `CC(=O)Nc1ccc(C(=O)Nc2nnc(CCc3ccccc3)s2)cc1` the value was 10 µM [falling, partial curve, poor fit]; for `CCCCNC(=S)NNC(=O)c1csc(CC)c1`, 4.11 µM [rising, single point].
Take `Cc1c(OCc2ccc(C(=O)O)o2)ccc2c3c(c(=O)oc12)CCC3`: the concentration at half-maximal activity (AC50) is 3.55 µM [falling, partial curve].
Regarding `Cc1ccc(S(=O)(=O)N(C)C)cc1NC(=O)CN1C(=O)NC(Cc2c[nH]c3ccccc23)C1=O` (stereo unspecified), the AC50 was 22.4 µM [falling, single point].
Next, `CN(C)S(=O)(=O)c1cccc(NC(=O)CC23CC4CC(CC(C4)C2)C3)c1`: 17.8 µM [falling, single point].
For `CN1C/C(=C/c2ccncc2)C(=O)/C(=C/c2ccncc2)C1` the value was 4.47 µM [falling, partial curve, poor fit].
Take `O=C(Nc1nnc(-c2ccccc2)o1)c1cccc(S(=O)(=O)N2CCOCC2)c1`: the concentration at half-maximal activity (AC50) is 18.4 µM [falling, partial curve].
For `CCCn1c(SCC(=O)O)nc2ccccc21` the value was 0.517 µM [rising, partial curve, poor fit]; for `CC1CCCCN1CC(=O)Nc1ccc(Oc2ccccc2)cc1` (stereo unspecified), 1.16 µM [rising, full curve, poor fit].
For `Clc1ccc(CCNc2nc3ccccc3n3nnnc23)cc1` the value was 11.2 µM [falling, partial curve].
Turning to `CC(C)(C)c1nnc(N/N=C/c2cc(Br)ccc2O)n(N)c1=O`, the AC50 was 3.66 µM [falling, partial curve, poor fit].
As to `Cc1ccccc1NS(=O)(=O)c1ccc2[nH]cc(C(=O)N(C)Cc3ccco3)c(=O)c2c1`, the AC50 was 20 µM [falling, partial curve, poor fit].
For `Cc1cc(CSc2ccccc2)ccc1NC(=O)COc1ccccc1C` the value was 0.13 µM [rising, full curve, poor fit]; for `Cc1c(-n2c(=S)[nH]c3ccccc3c2=O)c(=O)n(-c2ccccc2)n1C`, 14.6 µM [rising, single point]; for `C=CCNC(=O)c1cc2c(=O)c3ccccc3oc2nc1C`, 7.08 µM [falling, partial curve, poor fit].
As for `CCn1nc(C(=O)Nc2ccc(N3CCOCC3)cc2)c2ccccc2c1=O`, the half-maximal activity concentration (AC50) was 7.31 µM [rising, partial curve, poor fit].
With `CCOc1cc(CNC(CC)CO)ccc1OCC(=O)Nc1cccc(C(F)(F)F)c1` (stereo unspecified), the half-maximal activity concentration (AC50) was 11.2 µM [falling, single point].
For `O=C(CSc1nc(=O)n(CCCN2CCOCC2)c2c1CCC2)Nc1ccc(F)cc1F`, the AC50 is 25.9 µM [falling, partial curve, poor fit].
As to `O=C(CN1C(=O)C(=O)N(Cc2ccco2)C1=O)c1c[nH]c2ccccc12`, the AC50 was 5.62 µM [falling, full curve].
In the case of `COC(=O)C1(Cc2cc(-c3ccc(OC)cc3OC)no2)CCN(C(=O)OC(C)(C)C)CC1`, the half-maximal activity concentration (AC50) was 35.5 µM [falling, single point].
Next, `CCOc1ccccc1C(=O)NCC(=O)Nc1ncccc1C`: 11.6 µM [falling, partial curve]; `O=C(Nc1ccccn1)c1ccc2c(c1)OCCO2`: 10 µM [falling, partial curve, poor fit]; `CN1CCN(C(=O)/C=C/c2ccc([N+](=O)[O-])cc2)CC1`: 2.59 µM [rising, full curve].
Next, `CCOc1ncccc1C(=O)OCc1c(Cl)cccc1Cl`: 32.6 µM [rising, partial curve, poor fit]; `O=C1NC(=O)/C(=C\c2ccccc2OCc2ccccc2)S1`: 2.82 µM [rising, partial curve].

Source of the values: PubChem BioAssay AID493014 (National Center for Advancing Translational Sciences (NCATS), 2011).
